Experimental data from PubChem BioAssay AID504834 (National Center for Advancing Translational Sciences (NCATS), 2011).
Out of some 320,000 compounds screened, about 22,000 (6.9%) were called active. Inconclusive results, whose numbers are uncertain, are shown with a selection of clear calls. Calls come from the whole dose curve; as a rule, active = well fitted inhibition curve with a large enough effect; inconclusive = small, poorly fitted or top-dose-only effect, or another doubt; inactive = no such curve, though single readings can be large or run the other way. Potencies beside an inconclusive call are fits to weak or partial responses and may not hold up.

experiment: Primary qHTS for delayed death inhibitors of the malarial parasite plastid, 96 hour incubation; conditions: P. falciparum luciferase reporter growth; series mostly up to 28.7 µM; activity change, negative = inhibition: at the top concentration
How it was run: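 P. falciparum expressing integrated firefly luciferase grown in erythrocytes (2% hematocrit, 0.05% parasitemia final) with compounds for 96 hours at 37 C, 5% CO2. Growth inhibition read as loss of luminescence after adding luciferase detection reagent.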
% is set by controls: 0 for no effect and ±100 for the full control effect; potency is the fitted concentration of half-maximal effect.

| SMILES | Potency | activity change, negative = inhibition |
| --- | --- | --- |
| Cn1c2c(c(=O)n(C)c1=O)C1(C(=O)Nc3ccccc31)C(C#N)=C(N)O2 (configuration not stated) | active: 8.28 µM | – |
| Cc1nn(C)cc1-c1cc(C(=O)O)c2ccccc2n1 | – | inactive: -1.91% |
| O=C(CSc1nc2c(c(=O)n1-c1ccc(F)cc1)SCC2)NCc1ccco1 | – | inactive: -7.66% |
| CCc1nc2cc(Cl)c(Cl)cc2[nH]1 | – | inactive: 42.4% |
| CC(=O)Nc1ccc(S(=O)(=O)Oc2ccc(/C=N/NC(=O)c3ccc(Cl)cc3)cc2)cc1 | inconclusive: 4.65 µM [inhibitor, full curve, poor fit] | – |
| COc1ccc(NC(=O)CN(c2ccc([N+](=O)[O-])cc2)S(=O)(=O)c2ccccc2)cc1 | – | inactive: -26.1% |
| COc1ccc(CC(=O)N2CCCc3ccccc32)cc1OC | – | inactive: 8.87% |
| Fc1ccc(-c2nnc3ccc(N4CCCC4)nn23)cc1 | – | inactive: -13.9% |
| COc1ccc(-c2nnc3ccc(SC)nn23)cc1 | active: 4.65 µM | – |
| Cc1cc(NC2CCCCC2)nc(N2CCOCC2)n1 | – | inactive: 130% |
| CCc1cc(=O)oc2cc(C)cc(OC(C)C(=O)NCCCn3ccnc3)c12 (configuration not stated) | inconclusive: 18.5 µM [inhibitor, single point] | – |
| COc1ccc(NC(=O)CSc2ccc(-c3cccnc3)nn2)cc1 | inconclusive: 6.57 µM [inhibitor, partial curve] | – |
| COc1ccccc1C1C=C(c2ccccc2)Nc2nnnn21 (configuration not stated) | – | inactive: -19.4% |
| CCOC(=O)CN(C(=O)CSc1nnc(CNc2ccc(C)cc2C)n1CC)c1ccccc1 | active: 9.28 µM | – |
| C/C=C(/C)C(=O)Nc1cccc(C2=NOC3(C2)C[C@@H](C(N)=O)N(C(=O)/C=C/CC)C3)c1 (some centres not stated) | – | inactive: 55% |
| CCOC(=O)C1=C(CC)OC(N)=C(C#N)C1c1ccsc1 (configuration not stated) | active: 13.1 µM | – |
| Cc1ccc(O)c(C(=O)c2cc(C#N)c3nc4ccccc4n3c2)c1 | – | inactive: 41.5% |
| CN1C(C(=O)NCc2cccc(Br)c2)CC2Cn3c(nc4cc5ccccc5cc43)C21 (configuration not stated) | – | inactive: 23.6% |
| Clc1ccccc1CSc1nnc(Cn2cnc3ccccc32)n1-c1ccccc1 | inconclusive: 18.5 µM [inhibitor, single point] | – |
| Cc1cccc(/C=C2/Sc3ccc(C(=O)NCCN4CCCC4)cc3NC2=O)c1 | – | inactive: 1.59% |
| O=C1CC(Nc2ccc(N3CCOCC3)cc2)C(=O)N1CCc1ccccc1 (configuration not stated) | – | inactive: 1.95% |
| CCCCn1c(N)c(N(CCOC)C(=O)CSCc2cccc(C)c2)c(=O)[nH]c1=O | – | inactive: -9.92% |
| Cc1nn(-c2ccccc2)c(C)c1/C=N/NC(=O)CSc1nnc(SCc2ccc(Cl)cc2)s1 | inconclusive: 18.5 µM [inhibitor, single point] | – |
| O=C(NCc1ccccc1)C1=C[C@@H](C2CC2)C[C@@H](OCCCCO)O1 | – | inactive: -0.567% |

A few values from the list:
Entry of `CCOC(=O)C1=C(CC)OC(N)=C(C#N)C1c1ccsc1` (configuration not stated) under Potency: active: 13.1 µM
Entry of `Fc1ccc(-c2nnc3ccc(N4CCCC4)nn23)cc1` under activity change, negative = inhibition: inactive: -13.9%
Entry of `O=C(CSc1nc2c(c(=O)n1-c1ccc(F)cc1)SCC2)NCc1ccco1` under activity change, negative = inhibition: inactive: -7.66%

(next part)

| SMILES | Potency | activity change, negative = inhibition |
| --- | --- | --- |
| CC(=O)Nc1ccc(S(=O)(=O)N(C)CC(=O)OCC(=O)N(CC(C)C)C2CCS(=O)(=O)C2)cc1 (configuration not stated) | – | inactive: 18.3% |
| CN1CCN(CCC(=O)N/N=C/C=C2\N(C)c3ccccc3C2(C)C)CC1 | inconclusive: 14.7 µM [inhibitor, single point] | – |
| Cc1ccc(-c2csc(NC3OC(=O)c4ccccc43)n2)cc1 (configuration not stated) | inconclusive: 18.5 µM [inhibitor, single point] | – |
| COC(=O)c1sccc1NC(=O)Nc1cc(C)ccc1OC | inconclusive: 18.5 µM [inhibitor, single point] | – |
| CCOC(=O)N1CCN(C(=O)c2c(-c3ccccc3Cl)noc2C)CC1 | inconclusive: 10.4 µM [inhibitor, single point] | – |
| CCOc1ccccc1C(=O)NCC(=O)Nc1ccc2c(c1)OCO2 | inconclusive: 18.5 µM [inhibitor, single point] | – |
| O=C(NC1CCS(=O)(=O)C1)c1ccc(N2CCCCC2)c([N+](=O)[O-])c1 (configuration not stated) | inconclusive: 11.7 µM [inhibitor, single point] | – |
| CCOC(=O)C1=C(c2ccccc2)N=c2s/c(=C\c3cc(OC)c(OC)c(OC)c3)c(=O)n2C1c1cccs1 (configuration not stated) | inconclusive: 1.85 µM [inhibitor, full curve, poor fit] | – |
| CCOC(=O)c1sc(NC(=O)c2ccc(Br)o2)cc1C | inconclusive: 18.5 µM [inhibitor, single point] | – |
| COc1ccc(C2=NN(C(=O)CSC3=NN4CCCC(=O)N=C4S3)C(c3cccc(OC)c3OC)C2)cc1 (configuration not stated) | inconclusive: 10.4 µM [inhibitor, partial curve, poor fit] | – |
| Cc1cc2cc(CN(Cc3cccs3)S(=O)(=O)c3ccc4c(c3)OCCO4)c(=O)[nH]c2cc1C | inconclusive: 10.4 µM [inhibitor, single point] | – |
| O=C(C1=C[C@H](C2CC2)C[C@H](OCCCCO)O1)N1CCN(Cc2ccccc2)CC1 | inconclusive: 13.1 µM [inhibitor, partial curve, poor fit] | – |
| CCOC(=O)CC(NC(=O)c1ccc(C)cc1)c1ccc(C)cc1 (configuration not stated) | inconclusive: 10.4 µM [inhibitor, single point] | – |
| Cc1ccc(S(=O)(=O)N(CCC#N)C2CCCCC2)c2nsnc12 | – | inactive: -16.8% |
| O=S(=O)(NCCOCC(F)(F)C(F)F)c1ccc2oc3ccccc3c2c1 | inconclusive: 5.22 µM [inhibitor, partial curve, poor fit] | – |
| C[C@]12CCC(=O)C=C1CC[C@@H]1[C@@H]2[C@@H](O)C[C@@]2(C)[C@H]1CC[C@]2(O)C(=O)COP(=O)(O)O | active: 7.57 µM | – |
| Cc1cc2nc(-c3ccc(SCc4ccc(C#N)cc4)nc3)[nH]c2cc1C | active: 7.38 µM | – |
| CCC(CC)c1nnc(NC(=O)c2cc(C(=O)OC)cc([N+](=O)[O-])c2)s1 | inconclusive: 18.5 µM [inhibitor, single point] | – |
| COCc1cc(C)nc(SCC[N+](C)(C)CC(=O)Nc2ccccc2)c1C#N | inconclusive: 9.28 µM [inhibitor, single point] | – |
| O=C(Nc1ccc(Cl)c([N+](=O)[O-])c1)C(Sc1ccccc1)c1ccccc1 (configuration not stated) | inconclusive: 9.28 µM [inhibitor, partial curve] | – |
| CCN1CCN(Cc2cc(OC)c(OC)cc2[N+](=O)[O-])CC1 | – | inactive: 73.5% |
| Cc1ccc(Oc2ccc(NC(=O)C3=CC=CN4CCS(=O)(=O)N=C34)cc2)cc1 | inconclusive: 11.7 µM [inhibitor, single point] | – |
| Cc1nonc1NC(=O)OC1CCCCC1 | active: 1.04 µM | – |
| COc1cccc(CNC(=O)[C@@H](C)N2C(=O)N3CCc4c([nH]c5ccc(OC)cc45)C3(C)C2=O)c1 (some centres not stated) | inconclusive: 10.4 µM [inhibitor, single point] | – |

| SMILES | Potency | activity change, negative = inhibition |
| --- | --- | --- |
| COc1ccc(C(C)NC(=O)c2ccncc2)cc1OC (configuration not stated) | inconclusive: 10.4 µM [inhibitor, single point] | – |
| COCCN(C(=O)CSc1nnc2cc(C)c3ccccc3n12)c1c(N)n(Cc2ccccc2)c(=O)[nH]c1=O | – | inactive: -10.6% |
| C[C@@]12C(=O)Nc3ccc(Cl)cc3C(=O)N1[C@H]1c3ccccc3OC[C@@H]1[C@@H]2c1ccccc1 | active: 10.4 µM | – |
| C=CCN1CN(S(=O)(=O)c2ccc(OC)cc2)c2nc3ccccc3nc21 | inconclusive: 18.5 µM [inhibitor, single point] | – |
| COc1cccc(OCC(O)CN2CCOCC2)c1 (configuration not stated) | inconclusive: 0.0037 µM [inhibitor, full curve, poor fit] | – |
| CCc1nc2ccc(C(=O)NCCc3ccc(OC)c(OC)c3)cc2nc1CC | inconclusive: 9.28 µM [inhibitor, partial curve] | – |
| O=C(COc1cccc2cccnc12)N/N=C/c1ccccc1O | inconclusive: 18.5 µM [inhibitor, single point] | – |
| O=C(O)c1c(C(=O)O)c(-c2ccc(F)cc2)n2c1CCC2 | – | inactive: 12.6% |
| COC(=O)CCCC1=CC2=CC(=O)C(C)(OC(=O)CCc3ccccc3)C(=O)C2=CO1 (configuration not stated) | inconclusive: 18.5 µM [inhibitor, single point] | – |
| CCOC(=O)N1CCC(n2c(SCC(=O)OCc3ccccc3)nc3ccsc3c2=O)CC1 | inconclusive: 2.33 µM [inhibitor, full curve, poor fit] | – |
| CCCCN(C(=O)C1=COCCO1)c1c(N)n(Cc2ccccc2)c(=O)[nH]c1=O | inconclusive: 4.15 µM [inhibitor, partial curve] | – |
| CCn1nc(C)c(CN2CCc3c([nH]c4ccccc34)C2c2ccc(F)c(OC)c2)c1C (configuration not stated) | inconclusive: 18.5 µM [inhibitor, single point] | – |
| COc1cccc(/C=C2\N=C3CCCCCN3C2=O)c1 | – | inactive: -7.95% |
| O=C(COc1ccc(Cl)cc1Cl)N/N=C/CCc1ccccc1 | – | inactive: 85.6% |
| O=C(c1cc([N+](=O)[O-])cc([N+](=O)[O-])c1)N1CCOCC1 | inconclusive: 9.28 µM [inhibitor, single point] | – |
| COc1ccc([N+](=O)[O-])c(OC)c1C(=O)NC(=O)Nc1c(C)cccc1C | – | inactive: -21.7% |
| Nc1ncnc2c1ncn2C1CCCC1 | inconclusive: 16.5 µM [inhibitor, single point] | – |
| CCOc1cccc(C2NC(=S)NC(C)=C2C(=O)Nc2ccccc2)c1 (configuration not stated) | – | inactive: 13.1% |
| CC1=NN(c2ccccc2)C(=O)C1N=Nc1ccccc1 (configuration not stated) | inconclusive: 8.28 µM [inhibitor, single point] | – |
| Cc1cc(C)n(CC(=O)O)c(=O)c1[N+](=O)[O-] | – | inactive: 48.8% [at 5.75 µM] |
| NC(=O)c1ccc(NC(=O)C2COc3ccccc3O2)cc1 (configuration not stated) | inconclusive: 18.5 µM [inhibitor, single point] | – |
| CCCOC(=O)c1ccc(N)cc1 | – | inactive: -10.6% |
| N#Cc1c(N)oc(-c2cccs2)c1-c1cccs1 | active: 13.1 µM | – |
| N#Cc1ccccc1Sc1ccccc1C(=O)Nc1ccc2ccccc2c1 | inconclusive: 18.5 µM [inhibitor, single point] | – |
